Source: patent US12491217B2, “Compositions and methods for promoting healthy neural development in an unborn baby” (The Regents of the University of California, priority 2019, dated 2025)

Assay: Metabolomics of fetal brain at E14.5
Type: in vivo, C57Bl/6J mice
Settings: metabolite level in E14.5 fetal brain; for fold of change ABX/SPF: ANOVA contrast ABX/SPF; for fold of change GF/ABX: ANOVA contrast GF/ABX; for fold of change GF/SPF: ANOVA contrast GF/SPF; for fold of change GF/Sp: ANOVA contrast GF/Sp; for fold of change Sp/ABX: ANOVA contrast Sp/ABX; for fold of change Sp/SPF: ANOVA contrast Sp/SPF

| Structure (SMILES) | fold of change ABX/SPF | fold of change GF/ABX | fold of change GF/SPF | fold of change GF/Sp | fold of change Sp/ABX | fold of change Sp/SPF |
| --- | --- | --- | --- | --- | --- | --- |
| Cn1c(=N)ccn([C@@H]2O[C@H](CO)[C@@H](O)[C@H]2O)c1=O [compound 3579] | 0.50 | 0.90 | 0.45 | 0.84 | 1.07 | 0.54 |
| Cc1cn([C@@H]2O[C@H](CO)[C@@H](O)[C@H]2O)c(=O)nc1N [compound 3580] | 0.72 | 1.04 | 0.75 | 0.92 | 1.14 | 0.82 |
| Nc1ccn([C@H]2C[C@H](O)[C@@H](COP(=O)(O)O)O2)c(=O)n1 [compound 3585] | 0.93 | 0.95 | 0.89 | 1.17 | 0.81 | 0.76 |
| Nc1ccn([C@H]2C[C@H](O)[C@@H](CO)O2)c(=O)n1 [compound 3587] | 0.68 | 0.80 | 0.54 | 0.93 | 0.86 | 0.59 |
| CO[C@@H]1[C@H](O)[C@@H](CO)O[C@H]1n1ccc(N)nc1=O [compound 3588] | 0.73 | 0.98 | 0.72 | 0.89 | 1.10 | 0.80 |
| Cc1cn([C@H]2C[C@H](O)[C@@H](CO)O2)c(=O)nc1N [compound 3589] | 0.35 | 1.04 | 0.36 | 0.79 | 1.31 | 0.46 |
| Cc1c[nH]c(=O)[nH]c1=O [compound 3599] | 0.81 | 1.18 | 0.96 | 0.88 | 1.35 | 1.09 |
| CC(CN)C(=O)O (stereo not drawn) [compound 3602] | 0.91 | 0.87 | 0.80 | 1.18 | 0.74 | 0.68 |
| COP(=O)(O)O [compound 3603] | 0.74 | 1.02 | 0.75 | 1.12 | 0.91 | 0.67 |
| Nc1ncnc2c1ncn2[C@@H]1O[C@H](CO)[C@@H](OP(=O)(O)OC[C@H]2O[C@@H](n3ccc(=O)[nH]c3=O)[C@H](O)[C@@H]2O)[C@H]1O [compound 3607] | 1.11 | 0.40 | 0.44 | 0.90 | 0.44 | 0.49 |
| Nc1ncnc2c1ncn2C1OC(COP(=O)(O)OC2C(CO)OC(n3cnc4c(N)ncnc43)C2O)C(O)C1O (stereo not drawn) [compound 3608] | 1.00 | 0.61 | 0.61 | 1.08 | 0.56 | 0.56 |
| NC(=O)c1ccc[n+]([C@@H]2O[C@H](CO)[C@@H](O)[C@H]2O)c1 [compound 3627] | 0.70 | 1.03 | 0.72 | 0.82 | 1.26 | 0.88 |
| NC(=O)c1ccc[n+]([C@@H]2O[C@H](COP(=O)([O-])OP(=O)(O)OC[C@H]3O[C@@H](n4cnc5c(N)ncnc54)[C@H](O)[C@@H]3O)[C@@H](O)[C@H]2O)c1 [compound 3628] | 0.85 | 1.04 | 0.88 | 1.04 | 1.00 | 0.85 |
| C[n+]1cccc(C(N)=O)c1 [compound 3636] | 1.35 | 1.04 | 1.41 | 0.89 | 1.17 | 1.58 |
| C[n+]1cccc(C(=O)[O-])c1 [compound 3641] | 0.58 | 0.95 | 0.55 | 0.61 | 1.55 | 0.90 |
| Cn1cc(C(N)=O)ccc1=O [compound 3643] | 1.08 | 0.86 | 0.93 | 0.58 | 1.48 | 1.59 |
| Cn1ccc(=O)c(C(N)=O)c1 [compound 3644] | 1.04 | 0.94 | 0.97 | 0.59 | 1.58 | 1.65 |
| Cc1cc2nc3c(=O)[nH]c(=O)nc-3n(C[C@H](O)[C@H](O)[C@H](O)COP(=O)(O)OP(=O)(O)OC[C@H]3O[C@@H](n4cnc5c(N)ncnc54)[C@H](O)[C@@H]3O)c2cc1C [compound 3649] | 0.77 | 1.00 | 0.77 | 0.88 | 1.13 | 0.87 |
| Cc1cc2nc3c(=O)[nH]c(=O)nc-3n(C[C@H](O)[C@H](O)[C@H](O)COP(=O)(O)O)c2cc1C [compound 3650] | 0.85 | 0.83 | 0.71 | 0.92 | 0.91 | 0.77 |
| CC(C)(CO)[C@@H](O)C(=O)NCCC(=O)O [compound 3651] | 0.80 | 0.90 | 0.72 | 0.74 | 1.22 | 0.98 |
| CC(C)(COP(=O)(O)O)[C@@H](O)C(=O)NCCC(=O)NCCS [compound 3653] | 0.97 | 0.71 | 0.69 | 1.05 | 0.68 | 0.65 |
| CC(C)(COP(=O)(O)OP(=O)(O)OCC1OC(n2cnc3c(N)ncnc32)C(O)C1OP(=O)(O)O)C(O)C(=O)NCCC(=O)NCCS (stereo not drawn) [compound 3656] | 0.94 | 0.89 | 0.84 | 1.03 | 0.87 | 0.81 |
| CC(C)(CO)[C@@H](O)C(=O)NCCC(=O)NCCS [compound 3658] | 0.78 | 0.74 | 0.57 | 0.88 | 0.84 | 0.65 |
| O=C1O[C@H]([C@@H](O)CO)C(O)=C1O [compound 3662] | 1.07 | 0.57 | 0.60 | 0.91 | 0.63 | 0.67 |
